Source: PMC11605454
No constants are given. Whether binding was seen depends on the method and setting. Binding seen in cells or lysates may run through a third protein. Binding calls can cover weak binding; strength is not graded here. One block for each molecule: values may come before it.

How the values were obtained:
[1] = biological target: T1, CPSF6, mouse (mouse (endogenous in P0 cortex)) (UniProt Q6NVF9); experiment: co-IP; reciprocal Co-IP-Western to validate newly identified PHF21A partners; source of the extract and the antibodies used to precipitate are not given
T1 sequence: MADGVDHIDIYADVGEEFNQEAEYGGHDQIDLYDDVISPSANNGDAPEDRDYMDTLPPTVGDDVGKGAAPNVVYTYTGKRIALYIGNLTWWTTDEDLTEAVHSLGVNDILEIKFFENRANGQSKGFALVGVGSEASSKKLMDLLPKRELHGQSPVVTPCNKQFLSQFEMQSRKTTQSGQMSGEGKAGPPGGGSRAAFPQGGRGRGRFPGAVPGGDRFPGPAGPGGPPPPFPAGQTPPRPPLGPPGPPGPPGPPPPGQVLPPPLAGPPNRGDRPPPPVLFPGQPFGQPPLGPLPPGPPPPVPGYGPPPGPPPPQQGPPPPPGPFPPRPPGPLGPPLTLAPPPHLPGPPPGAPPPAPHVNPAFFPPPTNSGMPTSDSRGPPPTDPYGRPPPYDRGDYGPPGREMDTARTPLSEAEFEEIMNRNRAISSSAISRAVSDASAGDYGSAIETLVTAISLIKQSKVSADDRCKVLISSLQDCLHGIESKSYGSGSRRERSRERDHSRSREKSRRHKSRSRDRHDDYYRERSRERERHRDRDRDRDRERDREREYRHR

[2] = biological target: PHF21A neuronal isoform (PHF21A-n), mouse (mouse (endogenous in cortical neurons and P0 cortex)); experiment: co-IP; anti-PHF21A antibody crosslinked to Protein A/G beads, control rabbit IgG; nuclear extracts (0.6 M KCl extraction) of LUHMES cells (day 0, day 3), 293T cells, MEFs, cortical neurons (DIV7) or P0 mouse cortices; 3 h at 4 °C; Western blot

- binding [1]: binds
Molecule: PHF21A neuronal isoform (PHF21A-n), mouse

- binding [2]: binds
B1: HMG20A (iBRAF), mouse (protein, UniProt Q9DC33 1-346)
chain: MESLMASSTLPPLFADEDGSKESNDLATSGLTHPEGPYGSAATSTTNPEFVEDLSQGQLLQSEASNAVEGNEQRPEDEQRSKRGGWSKGRKRKKPLRDSNAPKSPLTGYVRFMNERREQLRAKRPEVPFPEITRMLGNEWSKLPPEEKQRYLDEADRDKERYMKELEQYQKTEAYKVFSRKTQDRQKGKSHRQDAARQATHDHEKETEVKERSVFDIPIFTEEFLNHSKAREAELRQLRKSNMEFEERNAALQKHVESMRTAVEKLEVDVIQERSRNTVLQQHLETLRQMLTSSFASMPLPGSGEIPTVDTIDSYMNRLHSIILANPQDNENFIATVREVVNRLDR

- binding [2]: binds
B2: HMG20B (BRAF35), mouse (protein, UniProt Q9Z104 1-317)
chain: MSHGPRQPGAATAPAGGKTPGQHGAFVVAVKQERSEGSRAGEKGPQEEEPVKKRGWPKGKKRKKILPNGPKAPVTGYVRFLNERREQIRTRHPDLPFPEITKMLGAEWSKLQPAEKQRYLDEAEKEKQQYLKELWAYQQSEAYKVCTEKIQENKIKKEDSSSGLMNTLLNGHKGVDCDGFSTFDVPIFTEEFLDQNKAREAELRRLRKMNVAFEEQNAVLQRHTQSMSSARERLEQELALEERRTLALQQQLQAVRQALTASFASLPVPGTGETPTLGTLDFYMARLHGAIERDPAQHERLIARVKEILARVASEHL
